Key:
[1] = general procedure: Fmoc solid-phase peptide synthesis; 2-chlorotrityl chloride resin (2-CTC), capacity 1.0-1.5 mmol/g; HBTU, HOBt, DIPEA
[2] = general procedure: Fmoc solid-phase peptide synthesis; 2-CTC resin; HBTU, HOBt, DIPEA; conditions: whole synthesis
[3] = conjugation step, HPLC-MS (Shimadzu Prominence LC-20, LCMS-2020, Phenomenex Luna C18)
[4] = late stage modification step, HPLC-MS (Shimadzu Prominence LC-20, LCMS-2020, Phenomenex Luna C18)

Substance: (3S,7S,25S,28S,31S)-31-(4-aminobutyl)-25-benzyl-12-(4-bromobenzyl)-36-(4-(4-(((S)-1-(((S)-1-((4-((5S,8S,11S,12R)-11-((S)-sec-butyl)-12-(2-((S)-2-((1R,2R)-3-(((1S,2R)-1-hydroxy-1-phenylpropan-2-yl)amino)-1-methoxy-2-methyl-3-oxopropyl)pyrrolidin-1-yl)-2-oxoethyl)-5,8-diisopropyl-4,10-dimethyl-3,6,9-trioxo-2,13-dioxa-4,7,10-triazatetradecyl)phenyl)amino)-1-oxo-5-ureidopentan-2-yl)amino)-3-methyl-1-oxobutan-2-yl)amino)-4-oxobutyl)-1H-1,2,3-triazol-1-yl)-28-(4-hydroxybenzyl)-5,13,20,23,26,29,32-heptaoxo-4,6,12,19,24,27,30,33-octaazahexatriacontane-1,3,7-tricarboxylic acid
- conjugation yield ([1]; conjugation step): 41%
- final LC-MS purity [1, 3]: 99.9%

Substance: tri-tert-butyl (10S,13S,16S,34S,38S)-10-((3-azidopropyl)carbamoyl)-13,16-dibenzyl-29-(4-(tert-butoxycarbonyl)benzyl)-2,2-dimethyl-4,12,15,18,21,28,36-heptaoxo-3-oxa-5,11,14,17,22,29,35,37-octaazatetracontane-34,38,40-tricarboxylate
- step yield ([1]; late stage modification step): 47% yield

Substance: N2-((S)-2-((S)-2-((7S,11S)-7,11-bis(tert-butoxycarbonyl)-16-(4-(tert-butoxycarbonyl)benzyl)-2,2-dimethyl-4,9,17,24-tetraoxo-3-oxa-8,10,16,23-tetraazaheptacosan-27-amido)-3-phenylpropanamido)-3-(4-(tert-butoxy)phenyl)propanoyl)-N6-(tert-butoxycarbonyl)-L-lysine
- isolated yield [2]: 76%

Substance: N2-((S)-2-((S)-2-((7S,11S)-16-(4-bromobenzyl)-7,11-bis(tert-butoxycarbonyl)-2,2-dimethyl-4,9,17,24-tetraoxo-3-oxa-8,10,16,23-tetraazaheptacosan-27-amido)-3-phenylpropanamido)-3-(4-(tert-butoxy)phenyl)propanoyl)-N6-(tert-butoxycarbonyl)-L-lysine
- isolated yield [2]: 40%

Substance: tri-tert-butyl (10S,13S,16S,34S,38S)-10-((3-azidopropyl)carbamoyl)-16-benzyl-29-(4-bromobenzyl)-13-(4-(tert-butoxy)benzyl)-2,2-dimethyl-4,12,15,18,21,28,36-heptaoxo-3-oxa-5,11,14,17,22,29,35,37-octaazatetracontane-34,38,40-tricarboxylate
- step yield ([1]; late stage modification step): 76%

Substance: (3S,7S,25S,28S,31S)-31-(4-aminobutyl)-36-azido-25-benzyl-12-(4-bromobenzyl)-28-(4-hydroxybenzyl)-5,13,20,23,26,29,32-heptaoxo-4,6,12,19,24,27,30,33-octaazahexatriacontane-1,3,7-tricarboxylic acid
- final LC-MS purity [1, 4]: 99.9%
- step yield ([1]; late stage modification step, on 5b): 80%

Substance: tri-tert-butyl (10S,13S,16S,34S,38S)-10-((3-azidopropyl)carbamoyl)-16-benzyl-13-(4-(tert-butoxy)benzyl)-29-(3-chlorobenzyl)-2,2-dimethyl-4,12,15,18,21,28,36-heptaoxo-3-oxa-5,11,14,17,22,29,35,37-octaazatetracontane-34,38,40-tricarboxylate
- step yield ([1]; late stage modification step): 81%

Substance: (3S,7S,25S,28S,31S)-31-(4-aminobutyl)-36-azido-25-benzyl-12-(4-carboxybenzyl)-28-(4-hydroxybenzyl)-5,13,20,23,26,29,32-heptaoxo-4,6,12,19,24,27,30,33-octaazahexatriacontane-1,3,7-tricarboxylic acid
- final LC-MS purity [1, 4]: 99.0%
- step yield ([1]; late stage modification step, on 5c): 80%

Substance: (3S,7S,25S,28S,31S)-31-((3-azidopropyl)carbamoyl)-25-benzyl-12-(3-chlorobenzyl)-40-(((3S,8R,9S,10R,13S,14S)-10,13-dimethyl-17-(pyridin-3-yl)-2,3,4,7,8,9,10,11,12,13,14,15-dodecahydro-1H-cyclopenta[a]phenanthren-3-yl)oxy)-28-(4-hydroxybenzyl)-5,13,20,23,26,29,37,40-octaoxo-4,6,12,19,24,27,30,36-octaazatetracontane-1,3,7-tricarboxylic acid
- conjugation yield ([1]; conjugation step): 85%
- final LC-MS purity [1, 3]: 97%
- purity (crude or final not stated) [1, 3]: 97%

Substance: N2-((7S,11S)-7,11-bis(tert-butoxycarbonyl)-16-(4-(tert-butoxycarbonyl)benzyl)-2,2-dimethyl-4,9,17,24-tetraoxo-3-oxa-8,10,16,23-tetraazaheptacosan-27-oyl)-L-phenylalanyl-L-phenylalanyl-N6-(tert-butoxycarbonyl)-L-lysine
- isolated yield [2]: 95%

Substance: (3S,7S,25S,28S,31S)-31-(4-aminobutyl)-36-azido-25,28-dibenzyl-12-(4-carboxybenzyl)-5,13,20,23,26,29,32-heptaoxo-4,6,12,19,24,27,30,33-octaazahexatriacontane-1,3,7-tricarboxylic acid
- final LC-MS purity [1, 4]: 99.9%
- step yield ([1]; late stage modification step, on 5d): 76%

Substance: (3S,7S,25S,28S,31S)-31-(4-aminobutyl)-25-benzyl-36-(4-(4-(((S)-1-(((S)-1-((4-((5S,8S,11S,12R)-11-((S)-sec-butyl)-12-(2-((S)-2-((1R,2R)-3-(((1S,2R)-1-hydroxy-1-phenylpropan-2-yl)amino)-1-methoxy-2-methyl-3-oxopropyl)pyrrolidin-1-yl)-2-oxoethyl)-5,8-diisopropyl-4,10-dimethyl-3,6,9-trioxo-2,13-dioxa-4,7,10-triazatetradecyl)phenyl)amino)-1-oxo-5-ureidopentan-2-yl)amino)-3-methyl-1-oxobutan-2-yl)amino)-4-oxobutyl)-1H-1,2,3-triazol-1-yl)-12-(4-carboxybenzyl)-28-(4-hydroxybenzyl)-5,13,20,23,26,29,32-heptaoxo-4,6,12,19,24,27,30,33-octaazahexatriacontane-1,3,7-tricarboxylic acid
- conjugation yield ([1]; conjugation step): 55%
- final LC-MS purity [1, 3]: 99.9%

Substance: (3S,7S,25S,28S,31S)-31-(4-aminobutyl)-36-azido-25-benzyl-12-(3-chlorobenzyl)-28-(4-hydroxybenzyl)-5,13,20,23,26,29,32-heptaoxo-4,6,12,19,24,27,30,33-octaazahexatriacontane-1,3,7-tricarboxylic acid
- final LC-MS purity [1, 4]: 99.9%
- step yield ([1]; late stage modification step, on 5a): 76%
